This is an account of results in the supplement of paper PMC11732987, “Enantioselective OTUD7B fragment discovery through chemoproteomics screening and high-throughput optimisation” (Communications Chemistry, 2025).

By UniProt entry, the sequences of proteins in these tests, tags left out. Where a name states a change or a piece, a line headed by the entry shows the natural chain unless it says otherwise.
UniProt Q8NDZ4: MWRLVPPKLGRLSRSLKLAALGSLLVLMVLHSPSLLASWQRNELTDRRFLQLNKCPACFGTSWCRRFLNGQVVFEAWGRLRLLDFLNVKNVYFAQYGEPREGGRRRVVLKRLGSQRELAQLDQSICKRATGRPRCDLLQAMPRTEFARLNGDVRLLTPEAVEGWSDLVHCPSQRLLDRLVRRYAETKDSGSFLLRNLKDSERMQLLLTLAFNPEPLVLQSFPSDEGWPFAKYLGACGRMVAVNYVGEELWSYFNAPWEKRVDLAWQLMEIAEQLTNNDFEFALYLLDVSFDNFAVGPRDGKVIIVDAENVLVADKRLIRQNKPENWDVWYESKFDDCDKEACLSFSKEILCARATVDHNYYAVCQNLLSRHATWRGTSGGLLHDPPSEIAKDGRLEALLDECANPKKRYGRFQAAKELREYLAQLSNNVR
UniProt Q4LDG9: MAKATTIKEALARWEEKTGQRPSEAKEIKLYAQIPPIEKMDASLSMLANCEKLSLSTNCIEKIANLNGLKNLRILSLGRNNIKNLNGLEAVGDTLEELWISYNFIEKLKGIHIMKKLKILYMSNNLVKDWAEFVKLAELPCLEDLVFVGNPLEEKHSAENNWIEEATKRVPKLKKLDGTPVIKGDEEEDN
UniProt O43583: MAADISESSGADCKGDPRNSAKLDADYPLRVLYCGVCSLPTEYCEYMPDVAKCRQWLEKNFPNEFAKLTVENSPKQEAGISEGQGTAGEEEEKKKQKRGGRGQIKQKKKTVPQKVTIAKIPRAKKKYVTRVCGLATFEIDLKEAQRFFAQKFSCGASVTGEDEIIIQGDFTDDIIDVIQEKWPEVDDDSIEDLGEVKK
UniProt Q9BU89: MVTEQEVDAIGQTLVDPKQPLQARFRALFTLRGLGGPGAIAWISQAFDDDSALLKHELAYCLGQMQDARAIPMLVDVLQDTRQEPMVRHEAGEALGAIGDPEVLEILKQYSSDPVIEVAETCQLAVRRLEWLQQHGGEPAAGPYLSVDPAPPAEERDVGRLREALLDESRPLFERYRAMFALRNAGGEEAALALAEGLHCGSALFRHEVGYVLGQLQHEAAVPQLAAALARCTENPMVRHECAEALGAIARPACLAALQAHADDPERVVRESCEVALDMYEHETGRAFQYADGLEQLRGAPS
UniProt Q8IX18: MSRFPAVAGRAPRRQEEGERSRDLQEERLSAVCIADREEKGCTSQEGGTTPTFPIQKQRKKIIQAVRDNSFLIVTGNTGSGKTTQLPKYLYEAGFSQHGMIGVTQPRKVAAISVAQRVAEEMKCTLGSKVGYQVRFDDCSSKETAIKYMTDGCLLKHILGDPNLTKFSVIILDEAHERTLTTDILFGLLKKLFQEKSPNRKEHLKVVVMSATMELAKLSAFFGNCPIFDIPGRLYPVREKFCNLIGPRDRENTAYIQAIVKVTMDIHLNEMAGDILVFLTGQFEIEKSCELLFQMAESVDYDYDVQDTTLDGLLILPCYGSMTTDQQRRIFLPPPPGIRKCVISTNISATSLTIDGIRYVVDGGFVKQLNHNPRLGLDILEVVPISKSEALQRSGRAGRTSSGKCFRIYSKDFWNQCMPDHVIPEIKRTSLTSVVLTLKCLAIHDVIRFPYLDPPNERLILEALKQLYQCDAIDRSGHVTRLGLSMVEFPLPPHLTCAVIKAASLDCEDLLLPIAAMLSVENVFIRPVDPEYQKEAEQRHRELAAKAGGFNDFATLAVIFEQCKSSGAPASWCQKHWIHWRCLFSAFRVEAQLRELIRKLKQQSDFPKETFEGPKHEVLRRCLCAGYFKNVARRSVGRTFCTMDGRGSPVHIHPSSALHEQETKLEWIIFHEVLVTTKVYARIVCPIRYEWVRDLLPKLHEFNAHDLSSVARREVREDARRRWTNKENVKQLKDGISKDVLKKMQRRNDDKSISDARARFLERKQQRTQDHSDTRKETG
UniProt Q96KC8: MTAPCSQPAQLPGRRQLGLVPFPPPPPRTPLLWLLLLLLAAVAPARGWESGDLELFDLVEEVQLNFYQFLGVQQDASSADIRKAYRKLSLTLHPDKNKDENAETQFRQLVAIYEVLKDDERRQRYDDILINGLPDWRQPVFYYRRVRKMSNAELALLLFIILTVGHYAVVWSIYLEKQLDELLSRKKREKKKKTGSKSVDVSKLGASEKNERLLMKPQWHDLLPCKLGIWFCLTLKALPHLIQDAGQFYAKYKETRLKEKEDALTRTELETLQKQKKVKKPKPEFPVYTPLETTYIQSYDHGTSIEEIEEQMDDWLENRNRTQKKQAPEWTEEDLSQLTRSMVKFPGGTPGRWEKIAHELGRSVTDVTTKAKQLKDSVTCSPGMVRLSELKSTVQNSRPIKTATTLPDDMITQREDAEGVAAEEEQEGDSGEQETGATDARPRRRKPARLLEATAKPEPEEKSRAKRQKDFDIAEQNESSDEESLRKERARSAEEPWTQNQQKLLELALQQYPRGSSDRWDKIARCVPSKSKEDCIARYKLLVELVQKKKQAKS
UniProt Q92782, whole entry, looked up: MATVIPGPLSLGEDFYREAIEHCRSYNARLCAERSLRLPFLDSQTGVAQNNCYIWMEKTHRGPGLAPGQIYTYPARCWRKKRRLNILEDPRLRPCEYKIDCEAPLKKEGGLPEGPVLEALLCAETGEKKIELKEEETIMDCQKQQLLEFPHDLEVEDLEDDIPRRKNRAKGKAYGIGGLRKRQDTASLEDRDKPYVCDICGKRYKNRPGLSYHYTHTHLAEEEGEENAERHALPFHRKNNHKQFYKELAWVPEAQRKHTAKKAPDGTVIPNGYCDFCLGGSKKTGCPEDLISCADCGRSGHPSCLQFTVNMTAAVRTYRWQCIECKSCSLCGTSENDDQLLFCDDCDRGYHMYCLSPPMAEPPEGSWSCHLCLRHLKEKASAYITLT
UniProt Q9BZ29: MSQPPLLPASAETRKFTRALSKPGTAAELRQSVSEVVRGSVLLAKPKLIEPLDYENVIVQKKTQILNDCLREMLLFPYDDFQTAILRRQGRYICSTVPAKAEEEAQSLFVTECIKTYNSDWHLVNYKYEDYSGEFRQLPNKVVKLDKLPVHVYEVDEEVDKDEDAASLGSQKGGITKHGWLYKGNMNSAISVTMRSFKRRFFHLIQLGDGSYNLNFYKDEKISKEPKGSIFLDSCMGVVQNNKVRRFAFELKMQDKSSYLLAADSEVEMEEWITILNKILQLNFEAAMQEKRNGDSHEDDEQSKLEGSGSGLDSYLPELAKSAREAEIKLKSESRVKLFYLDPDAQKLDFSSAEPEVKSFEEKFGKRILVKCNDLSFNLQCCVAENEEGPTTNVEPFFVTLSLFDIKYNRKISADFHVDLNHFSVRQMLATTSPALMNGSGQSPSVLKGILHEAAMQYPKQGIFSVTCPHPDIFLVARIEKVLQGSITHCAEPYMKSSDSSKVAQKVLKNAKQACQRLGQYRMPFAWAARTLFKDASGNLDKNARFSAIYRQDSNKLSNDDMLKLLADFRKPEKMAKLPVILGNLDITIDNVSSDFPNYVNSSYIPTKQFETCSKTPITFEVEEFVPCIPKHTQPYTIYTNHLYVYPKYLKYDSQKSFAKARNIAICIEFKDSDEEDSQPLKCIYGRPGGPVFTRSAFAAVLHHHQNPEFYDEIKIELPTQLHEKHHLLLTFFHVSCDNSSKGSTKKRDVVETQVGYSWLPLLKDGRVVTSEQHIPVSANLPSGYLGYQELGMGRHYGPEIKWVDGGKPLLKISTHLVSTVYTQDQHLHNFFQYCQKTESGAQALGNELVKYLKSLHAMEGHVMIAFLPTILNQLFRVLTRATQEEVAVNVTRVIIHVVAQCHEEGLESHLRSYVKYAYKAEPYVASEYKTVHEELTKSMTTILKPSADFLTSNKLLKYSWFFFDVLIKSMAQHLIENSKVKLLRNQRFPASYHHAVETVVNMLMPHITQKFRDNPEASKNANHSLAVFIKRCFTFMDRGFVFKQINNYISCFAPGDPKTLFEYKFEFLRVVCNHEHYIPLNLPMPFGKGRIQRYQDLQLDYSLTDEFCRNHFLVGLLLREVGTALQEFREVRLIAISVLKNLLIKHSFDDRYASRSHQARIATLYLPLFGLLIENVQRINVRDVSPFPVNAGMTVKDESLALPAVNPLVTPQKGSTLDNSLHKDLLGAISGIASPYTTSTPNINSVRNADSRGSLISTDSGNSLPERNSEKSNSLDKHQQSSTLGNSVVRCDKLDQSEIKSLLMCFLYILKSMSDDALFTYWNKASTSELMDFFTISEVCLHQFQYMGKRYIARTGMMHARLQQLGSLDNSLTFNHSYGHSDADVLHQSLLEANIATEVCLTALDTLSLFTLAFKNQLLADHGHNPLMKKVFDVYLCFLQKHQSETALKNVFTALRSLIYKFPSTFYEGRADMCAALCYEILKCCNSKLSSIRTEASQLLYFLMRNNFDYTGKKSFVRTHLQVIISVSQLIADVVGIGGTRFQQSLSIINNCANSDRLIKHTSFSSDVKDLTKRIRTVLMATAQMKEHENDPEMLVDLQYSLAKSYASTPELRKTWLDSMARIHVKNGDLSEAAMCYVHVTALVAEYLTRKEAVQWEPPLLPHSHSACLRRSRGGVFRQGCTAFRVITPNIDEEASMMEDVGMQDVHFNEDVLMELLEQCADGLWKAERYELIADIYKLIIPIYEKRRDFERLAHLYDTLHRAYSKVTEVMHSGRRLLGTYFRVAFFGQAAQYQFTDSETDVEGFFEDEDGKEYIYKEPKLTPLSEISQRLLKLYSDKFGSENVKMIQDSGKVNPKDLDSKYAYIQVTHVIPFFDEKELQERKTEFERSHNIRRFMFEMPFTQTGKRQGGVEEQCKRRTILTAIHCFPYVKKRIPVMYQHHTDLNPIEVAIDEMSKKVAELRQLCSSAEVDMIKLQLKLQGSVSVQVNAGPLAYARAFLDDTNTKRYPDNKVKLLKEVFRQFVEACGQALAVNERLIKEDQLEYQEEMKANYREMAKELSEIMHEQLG
UniProt Q99615: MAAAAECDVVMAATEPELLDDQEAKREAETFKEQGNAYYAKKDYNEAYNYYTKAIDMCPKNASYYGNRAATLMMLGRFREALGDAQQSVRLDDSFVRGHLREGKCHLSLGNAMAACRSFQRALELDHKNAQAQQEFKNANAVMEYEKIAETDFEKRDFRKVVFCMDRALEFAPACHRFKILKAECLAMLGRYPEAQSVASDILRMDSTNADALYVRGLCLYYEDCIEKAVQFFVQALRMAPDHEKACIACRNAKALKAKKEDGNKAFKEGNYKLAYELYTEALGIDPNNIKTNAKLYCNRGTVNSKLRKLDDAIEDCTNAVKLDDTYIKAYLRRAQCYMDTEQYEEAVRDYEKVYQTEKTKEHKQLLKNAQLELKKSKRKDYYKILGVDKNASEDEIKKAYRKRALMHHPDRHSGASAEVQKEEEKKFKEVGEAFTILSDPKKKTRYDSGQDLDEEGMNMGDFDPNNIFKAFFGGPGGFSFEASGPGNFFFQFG
UniProt P51530: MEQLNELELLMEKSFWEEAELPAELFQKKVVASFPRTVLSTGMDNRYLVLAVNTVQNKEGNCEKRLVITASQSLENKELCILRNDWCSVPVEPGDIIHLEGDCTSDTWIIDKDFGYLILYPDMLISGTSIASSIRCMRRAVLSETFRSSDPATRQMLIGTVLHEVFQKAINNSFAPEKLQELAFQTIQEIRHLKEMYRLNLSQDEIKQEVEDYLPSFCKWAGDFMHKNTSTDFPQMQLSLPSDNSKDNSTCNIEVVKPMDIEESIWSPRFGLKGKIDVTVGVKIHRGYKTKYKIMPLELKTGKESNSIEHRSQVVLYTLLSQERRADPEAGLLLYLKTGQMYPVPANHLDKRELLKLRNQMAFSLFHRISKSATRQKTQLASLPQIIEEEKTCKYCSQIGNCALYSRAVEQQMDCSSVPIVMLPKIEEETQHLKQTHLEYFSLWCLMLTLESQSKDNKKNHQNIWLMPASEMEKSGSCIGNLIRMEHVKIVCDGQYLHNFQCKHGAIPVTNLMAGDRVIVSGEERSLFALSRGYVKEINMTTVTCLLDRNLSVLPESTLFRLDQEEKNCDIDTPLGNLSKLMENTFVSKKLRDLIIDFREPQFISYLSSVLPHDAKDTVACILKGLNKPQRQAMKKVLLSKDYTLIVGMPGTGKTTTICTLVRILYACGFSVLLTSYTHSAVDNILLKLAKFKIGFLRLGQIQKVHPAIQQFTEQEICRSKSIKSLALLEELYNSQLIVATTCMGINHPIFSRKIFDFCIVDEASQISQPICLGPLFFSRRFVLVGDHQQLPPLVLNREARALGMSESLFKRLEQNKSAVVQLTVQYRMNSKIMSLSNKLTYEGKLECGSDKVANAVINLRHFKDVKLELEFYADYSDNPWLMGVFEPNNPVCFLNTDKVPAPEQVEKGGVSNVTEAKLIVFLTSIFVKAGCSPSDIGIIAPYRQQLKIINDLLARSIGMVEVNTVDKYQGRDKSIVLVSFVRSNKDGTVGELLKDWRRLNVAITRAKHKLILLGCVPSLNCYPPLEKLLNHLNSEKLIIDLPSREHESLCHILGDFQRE

This is one part of the list. The data scatter; read single values as rough.

Compound in test [1]: ClCC(=O)N[C@@H]1CCCc2ccccc12
The experiment in a line: log2 mean competition ratio of IA-DTB cysteine labelling (DMSO/compound) (log2 ratio); higher = stronger cysteine engagement by compound. To be noted: treatment time: 4 h, cell line lysate: HEK293T. As for the experimental part: (§1)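 IA-DTB competitive cysteine chemoproteomics in HEK293T RIPA lysate. Lysates were treated with compound 29 or 30 at 50 or 200 µM for 4 h, then IA-DTB (500 µM, 1 h), trypsin-digested, NeutrAvidin-enriched and analysed by diaPASEF. Competition ratio = intensity DMSO / intensity compound (n=4 treated, n=64 DMSO); binding: mean log2 CR ≥ 1 and p ≤ 0.05 plus QC filters. Target is the cysteine site.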

Compound in test [2]: ClCC(=O)N[C@H]1CCCc2ccccc12
The description is as above. To be noted: treatment time: 4 h, cell line lysate: HEK293T. As for the experimental part: as §1

Consider DIPK2A C402 (UniProt Q8NDZ4), for which the “log2 mean competition ratio” value was -0.0268 in test [1] (50 µM), 0.0215 in test [1] (200 µM), -0.405 in test [2] (50 µM) and -0.0552 in test [2] (200 µM).

With DENND5A C1077 (UniProt Q6IQ26), the “log2 mean competition ratio” value was -0.308 in test [1] (50 µM), 0.254 in test [1] (200 µM), -0.504 in test [2] (50 µM) and 0.233 in test [2] (200 µM).

Take DIS3 C194 (UniProt Q9Y2L1): the “log2 mean competition ratio” value in test [1] (50 µM) is -0.114; in test [1] (200 µM), -0.14; in test [2] (50 µM), 0.0521; in test [2] (200 µM) it was 0.0963.

With DIS3 C533 (UniProt Q9Y2L1), the “log2 mean competition ratio” value is -0.138 in test [1] (50 µM), -0.0998 in test [1] (200 µM), 0.397 in test [2] (50 µM) and 0.0303 in test [2] (200 µM).

DENND4A C812 (UniProt Q7Z401): the “log2 mean competition ratio” value in test [1] (50 µM) is -0.167; in test [1] (200 µM) it was 0.262; in test [2] (50 µM), -0.123; in test [2] (200 µM), 0.0838.

Consider DNAL1 C50 (UniProt Q4LDG9), for which the “log2 mean competition ratio” value in test [1] (50 µM) was 0.242; in test [1] (200 µM), 0.219; in test [2] (50 µM) it was -0.155; in test [2] (200 µM), -0.261.

Turning to DENR C13 (UniProt O43583), the “log2 mean competition ratio” value is -0.19 in test [1] (50 µM), -0.0359 in test [1] (200 µM), -0.479 in test [2] (50 µM) and 0.196 in test [2] (200 µM).

In the case of DOHH C122 (UniProt Q9BU89), the “log2 mean competition ratio” value in test [1] (50 µM) is -0.135; in test [1] (200 µM) it was -0.25; in test [2] (50 µM) it was 0.00568; in test [2] (200 µM), -0.13.

For the target DHX40 C139 (UniProt Q8IX18), the “log2 mean competition ratio” value is -0.18 in test [1] (50 µM), 0.231 in test [1] (200 µM), -0.301 in test [2] (50 µM) and 0.265 in test [2] (200 µM).

Turning to DHX34 C32 (UniProt Q14147), the “log2 mean competition ratio” value in test [1] (50 µM) was 0.0247; in test [1] (200 µM), 0.738; in test [2] (50 µM) it was -0.141; in test [2] (200 µM) it was 0.494.

Take DMXL1 C543 (UniProt Q9Y485): the “log2 mean competition ratio” value in test [1] (50 µM) was 0.321; in test [1] (200 µM), 0.165; in test [2] (50 µM) it was -0.144; in test [2] (200 µM) it was 0.242.

For the target DEPDC5 C498 (UniProt O75140), the “log2 mean competition ratio” value was -0.238 in test [1] (50 µM), -0.439 in test [1] (200 µM), 0.123 in test [2] (50 µM) and -0.23 in test [2] (200 µM).

With DFFA C165 (UniProt O00273), the “log2 mean competition ratio” value in test [1] (50 µM) was -0.123; in test [1] (200 µM) it was 0.0664; in test [2] (50 µM) it was -0.00289; in test [2] (200 µM) it was 0.0362.

In the case of DNAJC1 C535 (UniProt Q96KC8), the “log2 mean competition ratio” value in test [1] (50 µM) was -0.143; in test [1] (200 µM), 0.157; in test [2] (50 µM), -0.149; in test [2] (200 µM), 0.175.

As to DHX40 C470 (UniProt Q8IX18), the “log2 mean competition ratio” value in test [1] (50 µM) was 0.0299; in test [1] (200 µM), 0.0567; in test [2] (50 µM), -0.0764; in test [2] (200 µM) it was 0.0542.

With DOHH C273 (UniProt Q9BU89), the “log2 mean competition ratio” value in test [1] (50 µM) is 0.353; in test [1] (200 µM), 0.402; in test [2] (50 µM), -0.0217; in test [2] (200 µM) it was 0.128.

For DIAPH1 C796, the “log2 mean competition ratio” value in test [1] (50 µM) is -0.202; in test [1] (200 µM) it was 0.172; in test [2] (50 µM), -0.0465; in test [2] (200 µM), 0.184.

For the target DMXL1 C1904 (UniProt Q9Y485), the “log2 mean competition ratio” value in test [1] (50 µM) was 0.138; in test [1] (200 µM) it was -0.393; in test [2] (50 µM) it was 0.257; in test [2] (200 µM), -0.295.

As for DPF1 C101 (UniProt Q92782), the “log2 mean competition ratio” value in test [1] (50 µM) came to 0.348; in test [1] (200 µM), 0.214; in test [2] (50 µM) it was 0.0453; in test [2] (200 µM), 0.271.

Consider DHX30 C1183 (UniProt Q7L2E3), for which the “log2 mean competition ratio” value is 0.142 in test [1] (50 µM), -0.268 in test [1] (200 µM), 0.351 in test [2] (50 µM) and -0.212 in test [2] (200 µM).

Turning to DOCK9 C94 (UniProt Q9BZ29), the “log2 mean competition ratio” value in test [1] (50 µM) is -0.436; in test [1] (200 µM) it was -0.229; in test [2] (50 µM), -0.0936; in test [2] (200 µM), 0.152.

Regarding DNAJC7 C164 (UniProt Q99615), the “log2 mean competition ratio” value is -0.0304 in test [1] (50 µM), 0.279 in test [1] (200 µM), -0.0546 in test [2] (50 µM) and 0.182 in test [2] (200 µM).

DHX33 C579 (UniProt Q9H6R0): the “log2 mean competition ratio” value is 0.0108 in test [1] (50 µM), 0.0712 in test [1] (200 µM), -0.376 in test [2] (50 µM) and -0.0659 in test [2] (200 µM).

Take DIAPH1 C1227: the “log2 mean competition ratio” value was 0.334 in test [1] (50 µM), -0.0549 in test [1] (200 µM), 0.118 in test [2] (50 µM) and 0.0448 in test [2] (200 µM).

As for DNA2 C621 (UniProt P51530), the “log2 mean competition ratio” value in test [1] (50 µM) was -0.0686; in test [1] (200 µM) it was -0.268; in test [2] (50 µM) it was 0.226; in test [2] (200 µM), -0.187.
